B1: Cand1 (protein, UniProt Q6ZQ38 1-1230)
chain: MASASYHISNLLEKMTSSDKDFRFMATNDLMTELQKDSIKLDDDSERKVVKMILRLLEDKNGEVQNLAVKCLGPLVSKVKEYQVETIVDTLCTNMLSDKEQLRDISSIGLKTVIGELPPASSGSALAANVCKKITGRLTSAIAKQEDVSVQLEALDIMADMLSRQGGLLVNFHPSILTCLLPQLTSPRLAVRKRTIIALGHLVMSCGNIVFVDLIEHLLSELSKNDSMSTTRTYIQCIAAISRQAGHRIGEYLEKIIPLVVKFCNVDDDELREYCIQAFESFVRRCPKEVYPHVSTIINICLKYLTYDPNYNYDDEDEDENAMDADGGDDDDQGSDDEYSDDDDMSWKVRRAAAKCLDAVVSTRHEMLPEFYKTVSPALIARFKEREENVKADVFHAYLSLLKQTRPVQSWLCDPDAMEQGDTPLTMLQSQVPNIVKALHKQMKEKSVKTRQCCFNMLTELVNVLPGALTQHIPVLVPGIIFSLNDKSSSSNLKIDALSCLYVILCNHSPQVFHPHVQALVPPVVACVGDPFYKITSEALLVTQQLVKVIRPLDQPSSFDATPYIKDLFTCTIKRLKAADIDQEVKERAISCMGQIICNLGDNLGPDLSNTLQIFLERLKNEITRLTTVKALTLIAGSPLKIDLRPVLGEGVPILASFLRKNQRALKLGTLSALDILIKNYSDSLTAAMIDAVLDELPPLISESDMHVSQMAISFLTTLAKVYPSSLSKISGSILNELIGLVRSPLLQGGALSAMLDFFQALVVTGTNNLGYMDLLRMLTGPVYSQSTALTHKQSYYSIAKCVAALTRACPKEGPAVVGQFIQDVKNSRSTDSIRLLALLSLGEVGHHIDLSGQLELKSVILEAFSSPSEEVKSAASYALGSISVGNLPEYLPFVLQEITSQPKRQYLLLHSLKEIISSASVAGLKPYVENIWALLLKHCECAEEGTRNVVAECLGKLTLIDPETLLPRLKGYLISGSSYARSSVVTAVKFTISDHPQPIDPLLKNCIGDFLKTLEDPDLNVRRVALVTFNSAAHNKPSLIRDLLDSVLPHLYNETKVRKELIREVEMGPFKHTVDDGLDIRKAAFECMYTLLDSCLDRLDIFEFLNHVEDGLKDHYDIKMLTFLMLVRLSTLCPSAVLQRLDRLVEPLRATCTTKVKANSVKQEFEKQDELKRSAMRAVAALLTIPEAEKSPLMSEFQSQISSNPELAAIFESIQKDSSSTNLESMDTS
B2: St13 (protein, UniProt Q99L47 1-371)
chain: MDPRKVSELRAFVKMCRQDPSVLHTEEMRFLREWVESMGGKVPPATHKAKSEENTKEEKRDKTTEENIKTEELSSEESDLEIDNEGVIEPDTDAPQEMGDENAEITEEMMDEANEKKGAAIEALNDGELQKAIDLFTDAIKLNPRLAILYAKRASVFVKLQKPNAAIRDCDRAIEINPDSAQPYKWRGKAHRLLGHWEEAAHDLALACKLDYDEDASAMLREVQPRAQKIAEHRRKYERKREEREIKERIERVKKAREEHERAQREEEARRQSGSQYGSFPGGFPGGMPGNFPGGMPGMGGAMPGMAGMAGMPGLNEILSDPEVLAAMQDPEVMVAFQDVAQNPSNMSKYQSNPKVMNLISKLSAKFGGQS
B3: Cct8 (protein, UniProt P42932 1-548)
chain: MALHVPKAPGFAQMLKDGAKHFSGLEEAVYRNIQACKELAQTTRTAYGPNGMNKMVINRLEKLFVTNDAATILRELEVQHPAAKMIVMASHMQEQEVGDGTNFVLVFAGALLELAEELLRIGLSVSEVISGYEIACKKAHEILPELVCCSAKNLRDVDEVSSLLRTSIMSKQYGSETFLAKLIAQACVSIFPDSGNFNVDNIRVCKILGSGIYSSSVLHGMVFKKETEGDVTSVKDAKIAVYSCPFDGMITETKGTVLIKTAEELMNFSKGEENLMDAQVKAIAGTGANVIVTGGKVADIALHYANKYNIMLVRLNSKWDLRRLCKTVGATALPKLTPPVQEEMGHCDSVYLSEVGDTQVVVFKHEKEDGAISTIVLRGSTDNLMDDIERAVDDGVNTFKVLTRDKRLVPGGGATEIELAKQITSYGETCPGLEQYAIKKFAEAFEAIPRALAENSGVKANEVISKLYSVHQEGNKNVGLDIEAEVPAVKDMLEASILDTYLGKYWAIKLATNAAVTVLRVDQIIMAKPAGGPKPPSGKKDWDDDQND

These are yes or no findings as the source states them, for the method shown. Binding seen in cells or lysates may run through a third protein. Here binding means that the protein was enriched with, or labelled near, the bait; the list need not be complete.

The experiment deals with mutant p53 (mutp53) R172H protein of Trp53^R172H/R172H knock-in mice (mouse (endogenous in tissues of Trp53^R172H/R172H mice)) (UniProt P02340). In words: affinity purification with mass spectrometry; lysates of thymic lymphomas of Trp53^R172H/R172H mice (n = 3); IP with anti-p53 (FL393) beads, eluted with 0.1 M glycine, bands of a 4–15% SDS gel analysed by LC-MS/MS; normal thymus as control.
With B1, the binding result is “binds”.

Consider B2, for which the binding entry is recorded as “binds”.

As for B3, the binding entry is recorded as “binds”.

The values are drawn from PMC4561369.
